PubChem BioAssay AID652243 – Drosophila RNAi Screening Center – 2013
Assay: 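Knock-downs that decrease or increase androgen receptor reporter signal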 (primary screen). System: Drosophila S2R+ cells. Knock-down reagent: long dsRNA against Drosophila genes. Timing: 72 h (48 h, then 24 h hormone). Treatment: synthetic androgen R1881 at 10 nM for 24 h. Read-out: 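Firefly light from an androgen-responsive reporter and Renilla control light per well, raw and unnormalised, for each of two replicates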. Direction: firefly reporter light: higher = more light from androgen-responsive reporter; Renilla control light: higher = more constitutive control signal (cell number, transfection). Rule for the call: 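Across duplicate plates, a knock-down whose log firefly/Renilla ratio shifted a set fold down or up from the GFP/LacZ control mean was a hit; the downward cut appears as both 1.5 and 3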. Meaning of the calls: active = hit: reporter lowered or raised; inactive = no hit.
The deposit covers about 24,000 reagents; this is a random part of those that have a named target and a result. In the full data, 246 (1%) got an active call. 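Plates not normalised; calls are printed but the firefly/Renilla ratio behind them is not deposited; fold cut for lowering reported inconsistently.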 Raw values vary from plate to plate and are shown uncorrected. The numbers tell different reagents against one gene apart. Names joined by + are all predicted targets of the reagent. The record does not give: the amount of reagent.

gene knocked down,reagent no.,"firefly reporter light, replicate 1","firefly reporter light, replicate 2","Renilla control light, replicate 1","Renilla control light, replicate 2",activity call
Nak,1,1.29e6,7.11e5,2.07e6,1.12e6,inactive
Nak,2,2.12e5,2.67e5,3.16e5,7.53e5,inactive
Nak,3,,,,,inactive
CG14104,1,3.27e5,2.34e5,2.17e6,2.94e6,inactive
muskelin,1,2.11e5,1.07e5,1.81e6,1.64e6,active
Dus2,1,1.26e5,1.08e5,5.25e5,5.74e5,inactive
CG13028,1,3.35e5,3.18e5,3.42e6,2.66e6,inactive
ND-13A,1,2.52e5,1.99e5,1.45e6,1.14e6,inactive
ND-13A,2,4.26e5,3.66e5,9.29e5,9.29e5,inactive
Rab40,1,4.06e5,4.82e5,3.84e6,3.88e6,inactive
NimC3,1,2.05e5,2.45e5,2.20e6,2.80e6,inactive
NimC3,2,7.45e5,8.54e5,1.48e6,1.17e6,inactive
NimC3,3,7.41e5,5.95e5,1.49e6,1.12e6,inactive
CG9822,1,2.62e5,2.92e5,1.40e6,1.75e6,inactive
Rlip,1,2.38e5,2.76e5,2.59e6,3.07e6,inactive
CG30291,1,3.94e5,4.00e5,1.13e6,1.27e6,inactive
CG43867,1,2.31e5,1.59e5,2.69e6,2.23e6,inactive
CG43867,2,2.84e5,2.97e5,3.46e6,3.10e6,inactive
CG43867,3,1.03e6,2.10e6,1.27e6,2.41e6,inactive
CG43867,4,2.07e5,1.46e5,2.89e6,2.55e6,inactive
CG43867,5,4.07e5,3.27e5,1.08e6,7.80e5,inactive
CG43867,6,5.38e5,5.27e5,2.06e6,1.40e6,inactive
CG15767,1,3.05e5,4.56e5,1.49e6,1.38e6,inactive
CG15767,2,8.40e5,6.04e5,1.44e6,1.13e6,inactive
CG7352,1,1.47e5,1.32e5,2.36e6,2.20e6,inactive
Sptz,1,2.17e5,2.50e5,2.32e6,1.62e6,inactive
Sptz,2,5.26e5,6.25e5,9.53e5,9.65e5,inactive
l(3)72Dp,1,2.31e5,2.41e5,2.08e6,1.80e6,inactive
Lcp65Ab2 + Lcp65Ab1,1,1.85e5,2.01e5,1.93e6,2.06e6,inactive
Lcp65Ab2 + Lcp65Ab1,2,1.95e5,2.08e5,1.51e6,1.69e6,inactive
Lcp65Ab2 + Lcp65Ab1,3,4.62e5,4.09e5,1.52e6,1.30e6,inactive
CG4452,1,1.60e6,1.39e6,1.58e6,1.70e6,inactive
CG17648,1,1.34e5,84362,9.00e5,1.01e6,inactive
CG43271,1,6.63e5,6.05e5,1.80e6,2.44e6,inactive
CG11267,1,3.40e5,2.91e5,2.74e6,1.62e6,inactive
Hgsnat,1,70423,65295,7.31e5,5.73e5,inactive
Hgsnat,2,5.59e5,8.45e5,1.12e6,1.27e6,inactive
dgt2,1,2.53e5,2.74e5,1.50e6,1.42e6,inactive
dgt2,2,3.52e5,3.51e5,1.00e6,1.12e6,inactive
Or10a,1,3.38e5,5.50e5,2.74e6,4.41e6,inactive
Or10a,2,2.42e5,3.02e5,5.19e5,9.00e5,inactive
Cpr76Bc,1,1.80e5,1.45e5,2.84e6,1.79e6,inactive
Cpr76Bc,2,4.35e5,4.81e5,3.58e5,8.62e5,inactive
Gmer,1,5.85e5,7.83e5,9.99e5,1.13e6,inactive
Gmer,2,4.68e5,5.57e5,8.79e5,9.74e5,inactive
CG3740,1,3.28e5,2.50e5,2.75e6,2.84e6,inactive
CG10073,1,79922,69935,9.45e5,6.44e5,inactive
Nagk,1,43810,57276,4.63e5,5.15e5,inactive
CG18765,1,1.87e5,1.58e5,2.77e6,2.60e6,inactive
alphaTub84B,1,42323,72991,1.46e6,1.52e6,inactive
alphaTub84B,2,2.96e5,2.86e5,6.30e5,5.33e5,inactive
Polr3I,1,1.26e5,1.08e5,8.07e5,8.57e5,inactive
DCTN1-p150,1,8.23e5,2.77e5,1.37e6,7.98e5,inactive
DCTN1-p150,2,7.15e5,3.94e5,6.62e5,5.31e5,inactive
CG9098,1,4.23e5,4.23e5,3.71e6,2.64e6,inactive
CG9098,2,4.13e5,8.06e5,1.52e6,2.25e6,inactive
CG9098,3,3.32e5,2.99e5,7.79e5,9.60e5,inactive
CG42249,1,4.51e5,4.68e5,3.40e6,3.50e6,inactive
CG42249,2,3.34e5,4.15e5,3.66e6,3.30e6,inactive
CG42249,3,2.14e5,4.72e5,7.68e5,1.34e6,inactive
